Measurements taken from article PMC11259706 (The Journal of Biological Chemistry, 2024).
Results are given in words; binding and its absence hold for the method and conditions named. For some assays here: In cells and extracts the contact can be indirect. Some entries that bind do so weakly or less than the wild type. For some assays here: Tags and fused reporters may be left off the sequences shown.

Columns and labels:
[1] = target: T1, cMyc-ELP1 (elongator acetyltransferase complex subunit 1) (UniProt O95163); assay: co-IP; HEK293T cells transfected with cMyc-ELP1 and FLAG-PP5; lysate (25 mM Tris-HCl pH 7.4, 150 mM NaCl, 1 mM EDTA, 1% NP-40, 5% glycerol) on anti-myc magnetic resin, RT 3 h; Western blots for FLAG, Hsp90 and Hsp70
T1 sequence: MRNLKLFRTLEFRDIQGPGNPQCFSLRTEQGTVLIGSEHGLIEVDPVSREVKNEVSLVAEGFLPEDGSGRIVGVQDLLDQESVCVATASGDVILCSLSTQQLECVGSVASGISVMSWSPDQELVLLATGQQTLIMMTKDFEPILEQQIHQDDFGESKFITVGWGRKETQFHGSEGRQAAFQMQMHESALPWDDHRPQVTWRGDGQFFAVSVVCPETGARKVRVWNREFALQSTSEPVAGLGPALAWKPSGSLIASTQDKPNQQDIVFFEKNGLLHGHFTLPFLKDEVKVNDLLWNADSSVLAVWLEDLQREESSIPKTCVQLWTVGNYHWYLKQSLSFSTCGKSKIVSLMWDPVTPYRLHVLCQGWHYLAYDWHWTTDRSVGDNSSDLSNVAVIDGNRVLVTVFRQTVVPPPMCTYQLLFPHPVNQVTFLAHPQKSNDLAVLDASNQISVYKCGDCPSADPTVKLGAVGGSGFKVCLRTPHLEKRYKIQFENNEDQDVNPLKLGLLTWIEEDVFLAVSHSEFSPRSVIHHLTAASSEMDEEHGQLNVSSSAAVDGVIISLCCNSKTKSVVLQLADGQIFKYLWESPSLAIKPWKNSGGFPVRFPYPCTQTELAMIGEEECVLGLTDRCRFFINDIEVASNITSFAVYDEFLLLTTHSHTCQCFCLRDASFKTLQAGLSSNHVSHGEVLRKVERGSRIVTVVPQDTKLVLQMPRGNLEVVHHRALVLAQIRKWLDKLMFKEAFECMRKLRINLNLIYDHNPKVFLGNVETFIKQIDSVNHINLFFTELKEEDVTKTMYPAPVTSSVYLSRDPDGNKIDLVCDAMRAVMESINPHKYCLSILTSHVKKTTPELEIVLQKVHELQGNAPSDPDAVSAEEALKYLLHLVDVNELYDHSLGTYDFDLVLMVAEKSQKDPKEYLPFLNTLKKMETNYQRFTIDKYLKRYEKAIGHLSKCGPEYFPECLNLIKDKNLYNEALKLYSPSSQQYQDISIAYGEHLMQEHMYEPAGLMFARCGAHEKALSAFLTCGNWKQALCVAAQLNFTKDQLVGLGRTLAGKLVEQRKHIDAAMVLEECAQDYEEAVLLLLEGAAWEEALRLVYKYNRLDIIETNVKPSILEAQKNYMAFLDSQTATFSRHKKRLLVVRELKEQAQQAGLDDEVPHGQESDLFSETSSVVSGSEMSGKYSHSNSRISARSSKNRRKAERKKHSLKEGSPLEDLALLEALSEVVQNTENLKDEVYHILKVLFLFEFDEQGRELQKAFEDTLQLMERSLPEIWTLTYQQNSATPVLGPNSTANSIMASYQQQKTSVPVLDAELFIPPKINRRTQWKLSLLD

[2] = target: T2, protein phosphatase 5 (PP5), human, full-length (human) (UniProt P53041); assay: fluorescence polarisation; saturation binding: tracer 20 nM, 3-fold dilution series of PP5; 50 mM Hepes, 75 mM NaCl, 0.001% Triton X-100, pH 7.4; room temperature, 15 min; both purified
T2 sequence: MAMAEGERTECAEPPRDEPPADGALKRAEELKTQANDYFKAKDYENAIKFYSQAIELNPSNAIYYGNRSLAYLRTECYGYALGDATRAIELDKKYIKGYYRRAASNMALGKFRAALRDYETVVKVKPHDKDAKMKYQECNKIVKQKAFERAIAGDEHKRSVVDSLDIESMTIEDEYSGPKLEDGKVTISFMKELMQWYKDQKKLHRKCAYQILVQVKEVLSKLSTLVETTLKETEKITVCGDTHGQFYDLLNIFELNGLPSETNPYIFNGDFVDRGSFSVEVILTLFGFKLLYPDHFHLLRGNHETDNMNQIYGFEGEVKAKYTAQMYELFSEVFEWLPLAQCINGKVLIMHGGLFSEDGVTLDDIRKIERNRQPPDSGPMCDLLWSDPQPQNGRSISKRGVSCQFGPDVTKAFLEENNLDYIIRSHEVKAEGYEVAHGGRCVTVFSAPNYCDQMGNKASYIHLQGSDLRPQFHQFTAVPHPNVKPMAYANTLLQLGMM

FLAG-PP5 (from UniProt P53041 1-499) (enzyme)
binding [1]: binds

WKPVD (fluorescent label (tracer)) [fluorescent tracer of the DDCP C-terminal sequence WKPVD]
binding [2]: no binding (tested: > 100 μM)
